Source: US4812461A, “Imide derivatives and their use in the treatment psychosis” (Sumitomo Pharmaceuticals Company, Limited, priority 1986, dated 1989)
For at least one compound, name, drawing or mass did not settle the structure.

Experiments:
[1] = tested on: climbing behavior induced by apomorphine; assay: Anti-climbing behavior test (suppression of climbing behavior induced by apomorphine in mice); type: in vivo, dd strain male mice; settings: subcutaneous; imide derivatives (I) compared with tiaspirone
From the text: This activity was examined through the anti-climbing behavior test, i.e. the test for suppressing the climbing behavior induced by apomorphine in mice. A designated amount of the test compound was orally administered to several groups of dd strain male mice (bodyweight, 20 to 25 g; one group, 5 mice), and each of the animals was charged in an individual column cage of 12 cm in diameter and 14 cm in height having metal poles (each pole, 2 mm in diameter) vertically installed and arranged along the periphery with intervals of 1 cm. […]
0 All the paws were on the floor
1 Only forepaws seized the pole of the cage
2 All the paws seized the pole of the cage;
climbing behavior observed discontinu-
3 Continuous climbing behavior observed

anti-dopamine activity [2] = assay: Anti-dopamine activity in an anti-climbing behavior test using apomorphine (background statements); type: in vivo
anti-dopamine activity [3] = settings: cited from earlier work; for anti-dopamine activity as an indication of neuroleptic activity, in words: in vivo

Structure (SMILES) | neuroleptic activity when administered subcutaneously, in words [1] | anti-dopamine activity on oral administration, in words (anti-dopamine activity [2]) | anti-dopamine activity as an indication of neuroleptic activity, in words (anti-dopamine activity [3]) | anti-dopamine activity on intraperitoneal administration, in words (anti-dopamine activity [3]; intraperitoneal, anti-climbing behavior test using apomorphine)
O=C1CC2(CCCC2)CC(=O)N1CCCCN1CCN(c2nsc3ccccc23)CC1 [Tiaspiron, 8-[4-(3-benzisothiazolyl)-1-piperazinylbutyl]-8-azaspiro[4,5]decane-7,9-dione] | nearly the same significant level in neuroleptic activity | drastically reduced on oral administration | considerably high | stronger than chlorpromazine and nearly equal to haloperidol
O=C1CC2(CCCC2)CC(=O)N1CCCCN1CCN(c2ncccn2)CC1 [buspirone, 8-[4-(2-pyrimidinyl)-1-piperazinylbutyl]-8-azaspiro[4,5]decane-7,9-dione] | – | – | considerably high | –
